Results deposited as PubChem BioAssay AID1508597 (Cure First, 2020).
Here is one part, drawn at random, of about 2,100 reagents. 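Calls flag viability under 80% in either arm, not effects specific to rucaparib; the reference for percent is not stated.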 Entries without a mark were called inactive. The record does not give: the 100% reference.

Screen: 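Survival screen with siRNA in ovarian cancer cells derived from patients, with or without rucaparib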 (primary screen)
Cell system: human ovarian carcinoma lines grown from tumours: OCI-P5x (papillary serous) and OCI-C5x (clear cell)
Knock-down reagent: siRNA pool against human genes, 1.25 pmol siRNA per well
Timing: 72 h or 96 h, depending on the cell culture
Treatment: rucaparib 20 µM (about IC30) or vehicle, present until read-out
Detection: 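ATP luminescence measured at 72 or 96 h according to the culture, then normalised and expressed as percent viability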
Reading the numbers: viability, normalised: higher = more viable cells remaining
Active means: 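a well counts as a hit if its normalised viability is under 80 percent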
Calls: active = viability under 80%; inactive = viability 80% or more

gene knocked down | rucaparib or vehicle | cell line | technical replicate | viability, normalised (%)
DPF3 (double PHD fingers 3) | Rucaparib | OCI-C5x (clear cell) | 1 | 73.5 (active)
DPF3 (double PHD fingers 3) | Rucaparib | OCI-C5x (clear cell) | 2 | 51.8 (active)
DPF3 (double PHD fingers 3) | Rucaparib | OCI-C5x (clear cell) | 3 | 50.2 (active)
DPF3 (double PHD fingers 3) | Rucaparib | OCI-P5x (serous) | 1 | 74.6 (active)
DPF3 (double PHD fingers 3) | Rucaparib | OCI-P5x (serous) | 2 | 72.6 (active)
DPF3 (double PHD fingers 3) | Rucaparib | OCI-P5x (serous) | 3 | 85.8
DPF3 (double PHD fingers 3) | Vehicle | OCI-C5x (clear cell) | 1 | 45.8 (active)
DPF3 (double PHD fingers 3) | Vehicle | OCI-C5x (clear cell) | 2 | 46.5 (active)
DPF3 (double PHD fingers 3) | Vehicle | OCI-C5x (clear cell) | 3 | 43.6 (active)
DPF3 (double PHD fingers 3) | Vehicle | OCI-P5x (serous) | 1 | 63.5 (active)
DPF3 (double PHD fingers 3) | Vehicle | OCI-P5x (serous) | 2 | 72.6 (active)
DPF3 (double PHD fingers 3) | Vehicle | OCI-P5x (serous) | 3 | 59.3 (active)

The list goes on, starting with the last 2 of the part before.
gene knocked down | rucaparib or vehicle | cell line | technical replicate | viability, normalised (%)
DPF3 (double PHD fingers 3) | Vehicle | OCI-P5x (serous) | 2 | 72.6 (active)
DPF3 (double PHD fingers 3) | Vehicle | OCI-P5x (serous) | 3 | 59.3 (active)
PRP4K (pre-mRNA processing factor kinase PRP4K) | Rucaparib | OCI-C5x (clear cell) | 1 | 70.9 (active)
PRP4K (pre-mRNA processing factor kinase PRP4K) | Rucaparib | OCI-C5x (clear cell) | 2 | 53.8 (active)
PRP4K (pre-mRNA processing factor kinase PRP4K) | Rucaparib | OCI-C5x (clear cell) | 3 | 58 (active)
PRP4K (pre-mRNA processing factor kinase PRP4K) | Rucaparib | OCI-P5x (serous) | 1 | 122
PRP4K (pre-mRNA processing factor kinase PRP4K) | Rucaparib | OCI-P5x (serous) | 2 | 118
PRP4K (pre-mRNA processing factor kinase PRP4K) | Rucaparib | OCI-P5x (serous) | 3 | 97.8
PRP4K (pre-mRNA processing factor kinase PRP4K) | Vehicle | OCI-C5x (clear cell) | 1 | 89.3
PRP4K (pre-mRNA processing factor kinase PRP4K) | Vehicle | OCI-C5x (clear cell) | 2 | 59.1 (active)
PRP4K (pre-mRNA processing factor kinase PRP4K) | Vehicle | OCI-C5x (clear cell) | 3 | 58.5 (active)
PRP4K (pre-mRNA processing factor kinase PRP4K) | Vehicle | OCI-P5x (serous) | 1 | 89.8
PRP4K (pre-mRNA processing factor kinase PRP4K) | Vehicle | OCI-P5x (serous) | 2 | 91.6
PRP4K (pre-mRNA processing factor kinase PRP4K) | Vehicle | OCI-P5x (serous) | 3 | 59.3 (active)
